Experimental data as given in US20230212285A1.
No constants are given. Whether binding was seen depends on the method and setting. Some binding calls cover weakened binding; strength is not graded here.

The chains behind the UniProt entries cited, without tags or fusion partners. Where a name states a change or a piece, a line headed by the entry shows the natural chain unless it says otherwise.
UniProt P10721: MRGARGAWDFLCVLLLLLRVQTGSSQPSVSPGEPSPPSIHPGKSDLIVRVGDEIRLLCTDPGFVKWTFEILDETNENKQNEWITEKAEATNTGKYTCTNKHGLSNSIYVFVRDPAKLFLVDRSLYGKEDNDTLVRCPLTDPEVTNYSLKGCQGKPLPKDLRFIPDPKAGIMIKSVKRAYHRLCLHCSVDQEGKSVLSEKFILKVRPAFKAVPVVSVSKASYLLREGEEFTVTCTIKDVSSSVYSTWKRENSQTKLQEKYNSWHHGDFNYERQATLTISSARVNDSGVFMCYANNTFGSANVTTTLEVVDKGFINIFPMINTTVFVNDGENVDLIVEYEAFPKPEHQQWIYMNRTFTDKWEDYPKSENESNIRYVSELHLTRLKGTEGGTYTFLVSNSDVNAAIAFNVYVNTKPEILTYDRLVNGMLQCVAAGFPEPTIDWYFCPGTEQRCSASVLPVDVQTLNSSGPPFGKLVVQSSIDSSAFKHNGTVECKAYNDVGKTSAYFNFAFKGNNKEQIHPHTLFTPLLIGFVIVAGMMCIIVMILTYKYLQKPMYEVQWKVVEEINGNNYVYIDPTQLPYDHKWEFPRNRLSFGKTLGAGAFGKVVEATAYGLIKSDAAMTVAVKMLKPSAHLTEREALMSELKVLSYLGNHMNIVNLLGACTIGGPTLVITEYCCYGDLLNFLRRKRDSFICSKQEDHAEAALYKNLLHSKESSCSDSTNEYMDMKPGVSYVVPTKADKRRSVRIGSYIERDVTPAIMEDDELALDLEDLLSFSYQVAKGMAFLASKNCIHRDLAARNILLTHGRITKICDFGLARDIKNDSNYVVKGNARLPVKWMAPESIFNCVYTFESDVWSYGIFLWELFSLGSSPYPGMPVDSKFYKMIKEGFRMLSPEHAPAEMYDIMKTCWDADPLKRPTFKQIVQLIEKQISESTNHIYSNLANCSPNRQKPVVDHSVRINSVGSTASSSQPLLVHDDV

Assays:
[1] = target: human C-KIT-Fc protein (human) (UniProt P10721); test: direct ELISA, 1 µg/ml
[2] = target: human C-KIT-Fc protein (human) (UniProt P10721); test: direct titration ELISA
[3] = target: human C-KIT on stably transfected CHO-K1 cells (human) (UniProt P10721); test: flow cytometry
[4] = target: human C-KIT on stably transfected CHO-K1 cells (human) (UniProt P10721); test: flow cytometry, 0.02-100 µg/ml
[5] = target: human C-KIT-Fc protein (human) (UniProt P10721); test: HTRF epitope competition, IgG1-3M

Binder	binding [2]	binding [3]	further results
E-C7 (antibody, human IgG1, V domains shown) VH: QVQLVQSGAEVKKPGASVKVSCKASGYTFTDYYMNWVRQAPGQGLEWMGRIYPGSGNTYYAQKFQGRVTMTRDTSTSTVYMELSSLRSEDTAVYYCARGVYYYDYWGQGTLVTVSS VL: DIQMTQSPSSLSASVGDRVTITCRASQGIRTNLAWFQQKPGKAPKSLIYSASSLQSGVPSRFSGSGSGTDFTLTISSLQPEDFATYYCQQYNSYPRTFGGGTKVEIK	binds		binding [1]: binds
MH5 IgG1 (antibody, V domains shown) VH: QVQLVQSGAEVKKPGASVKVSCKASGYTFTDYYMNWVRQAPGQGLEWMGRIYPGSGNTYYAQKFQGRVTMTRDTSTSTVYMELSSLRSEDTAVYYCARGVYYYDYWGQGTLVTVSS VL: DIQMTQSPSSLSASVGDRVTITCRASQGIRTNLAWFQQKPGKAPKSLIYSASSLQSGVPSRFSGSGSGTDFTLTISSLQPEDFATYYCQQYANYPRTFGGGTKVEIK	binds	binds	binding [1]: binds
m37M chimeric anti-C-KIT IgG1 (antibody, V domains shown) VH: QVQLKQSGAELVRPGASVKLSCKASGYTFTDYYINWVKQRPGQGLEWIARIYPGSGNTYYNEKFKGKATLTAEKSSSTAYMQLSSLTSEDSAVYFCARGVYYFDYWGQGTTLTVSS VL: DIVMTQSQKFMSTSVGDRVSVTCKASQNVRTNVAWYQQKPGQSPKALIYSASYRYSGVPDRFTGSGSGTDFTLTISNVQSEDLADYFCQQYNSYPRTFGGGTKLEIKR	binds		binding [4]: binds
MH5.1 (antibody, human IgG1, V domains shown) VH: QVQLVQSGAEVKKPGASVKVSCKASGYTFTNYYMNWVRQAPGQGLEWMGRIYPGTGNTYYAQKFQGRVTMTRDTSTSTVYMELSSLRSEDTAVYYCARGVWYYDYWGQGTLVTVSS VL: DIQMTQSPSSLSASVGDRVTITCRASQGIRTNLAWFQQKPGKAPKSLIYAASSLQSGVPSRFSGSGSGTDFTLTISSLQPEDFATYYCQQYANYPRTFGGGTKVEIK	binds	binds	
MH5.2 (antibody, human IgG1, V domains shown) VH: QVQLVQSGAEVKKPGASVKVSCKASGYTFTDFYMNWVRQAPGQGLEWMGRIYPGTGNTYYAQKFQGRVTMTRDTSTSTVYMELSSLRSEDTAVYYCARGVWYYDYWGQGTLVTVSS VL: DIQMTQSPSSLSASVGDRVTITCRASQGIRTNLAWFQQKPGKAPKSLIYAASSLQSGVPSRFSGSGSGTDFTLTISSLQPEDFATYYCQQYANYPRTFGGGTKVEIK	binds	binds	
MH5.23 (antibody, human IgG1, V domains shown) VH: QVQLVQSGAEVKKPGASVKVSCKASGYTFTDFYMNWVRQAPGQGLEWMGRIYPASGNTYYAQKFQGRVTMTRDTSTSTVYMELSSLRSEDTAVYYCARGVWYFDSWGQGTLVTVSS VL: DIQMTQSPSSLSASVGDRVTITCRASQGIRTNLAWFQQKPGKAPKSLIYAASSLQSGVPSRFSGSGSGTDFTLTISSLQPEDFATYYCQQYANYPRTFGGGTKVEIK	binds	binds	
MH5.24 (antibody, human IgG1, V domains shown) VH: QVQLVQSGAEVKKPGASVKVSCKASGYTFTDFYMNWVRQAPGQGLEWMGRIYPASGNTYYAQKFQGRVTMTRDTSTSTVYMELSSLRSEDTAVYYCARGVWYFDTWGQGTLVTVSS VL: DIQMTQSPSSLSASVGDRVTITCRASQGIRTNLAWFQQKPGKAPKSLIYAASSLQSGVPSRFSGSGSGTDFTLTISSLQPEDFATYYCQQYANYPRTFGGGTKVEIK	binds	binds	
MH5.34 (antibody, human IgG1, V domains shown) VH: QVQLVQSGAEVKKPGASVKVSCKASGYTFTNYYMNWVRQAPGQGLEWMGRIYPASGNTYYAQKFQGRVTMTRDTSTSTVYMELSSLRSEDTAVYYCARGVWYFDSWGQGTLVTVSS VL: DIQMTQSPSSLSASVGDRVTITCRASQGIRTNLAWFQQKPGKAPKSLIYAASSLQSGVPSRFSGSGSGTDFTLTISSLQPEDFATYYCQQYANYPRTFGGGTKVEIK	binds	binds	
MH5.26 (antibody, human IgG1, V domains shown) VH: QVQLVQSGAEVKKPGASVKVSCKASGYTFTNYYMNWVRQAPGQGLEWMGRIYPGTGNTYYAQKFQGRVTMTRDTSTSTVYMELSSLRSEDTAVYYCARGVWYFDSWGQGTLVTVSS VL: DIQMTQSPSSLSASVGDRVTITCRASQGIRTNLAWFQQKPGKAPKSLIYAASSLQSGVPSRFSGSGSGTDFTLTISSLQPEDFATYYCQQYANYPRTFGGGTKVEIK	binds		
MH5.27 (antibody, human IgG1, V domains shown) VH: QVQLVQSGAEVKKPGASVKVSCKASGYTFTNYYMNWVRQAPGQGLEWMGRIYPGTGNTYYAQKFQGRVTMTRDTSTSTVYMELSSLRSEDTAVYYCARGVWYFDTWGQGTLVTVSS VL: DIQMTQSPSSLSASVGDRVTITCRASQGIRTNLAWFQQKPGKAPKSLIYAASSLQSGVPSRFSGSGSGTDFTLTISSLQPEDFATYYCQQYANYPRTFGGGTKVEIK	binds		
MH5.28 (antibody, human IgG1, V domains shown) VH: QVQLVQSGAEVKKPGASVKVSCKASGYTFTNYYMNWVRQAPGQGLEWMGRIYPGTGNTYYAQKFQGRVTMTRDTSTSTVYMELSSLRSEDTAVYYCARGVWYFDEWGQGTLVTVSS VL: DIQMTQSPSSLSASVGDRVTITCRASQGIRTNLAWFQQKPGKAPKSLIYAASSLQSGVPSRFSGSGSGTDFTLTISSLQPEDFATYYCQQYANYPRTFGGGTKVEIK	binds		
MH5.29 (antibody, human IgG1, V domains shown) VH: QVQLVQSGAEVKKPGASVKVSCKASGYTFTNYYMNWVRQAPGQGLEWMGRIYPGAGNTYYAQKFQGRVTMTRDTSTSTVYMELSSLRSEDTAVYYCARGVWYYDYWGQGTLVTVSS VL: DIQMTQSPSSLSASVGDRVTITCRASQGIRTNLAWFQQKPGKAPKSLIYAASSLQSGVPSRFSGSGSGTDFTLTISSLQPEDFATYYCQQYANYPRTFGGGTKVEIK	binds		
MH5.30 (antibody, human IgG1, V domains shown) VH: QVQLVQSGAEVKKPGASVKVSCKASGYTFTNYYMNWVRQAPGQGLEWMGRIYPGAGNTYYAQKFQGRVTMTRDTSTSTVYMELSSLRSEDTAVYYCARGVWYFDSWGQGTLVTVSS VL: DIQMTQSPSSLSASVGDRVTITCRASQGIRTNLAWFQQKPGKAPKSLIYAASSLQSGVPSRFSGSGSGTDFTLTISSLQPEDFATYYCQQYANYPRTFGGGTKVEIK	binds		
MH5.31 (antibody, human IgG1, V domains shown) VH: QVQLVQSGAEVKKPGASVKVSCKASGYTFTNYYMNWVRQAPGQGLEWMGRIYPGAGNTYYAQKFQGRVTMTRDTSTSTVYMELSSLRSEDTAVYYCARGVWYFDTWGQGTLVTVSS VL: DIQMTQSPSSLSASVGDRVTITCRASQGIRTNLAWFQQKPGKAPKSLIYAASSLQSGVPSRFSGSGSGTDFTLTISSLQPEDFATYYCQQYANYPRTFGGGTKVEIK	binds		
MH5.32 (antibody, human IgG1, V domains shown) VH: QVQLVQSGAEVKKPGASVKVSCKASGYTFTNYYMNWVRQAPGQGLEWMGRIYPGAGNTYYAQKFQGRVTMTRDTSTSTVYMELSSLRSEDTAVYYCARGVWYFDEWGQGTLVTVSS VL: DIQMTQSPSSLSASVGDRVTITCRASQGIRTNLAWFQQKPGKAPKSLIYAASSLQSGVPSRFSGSGSGTDFTLTISSLQPEDFATYYCQQYANYPRTFGGGTKVEIK	binds		
MH5.36 (antibody, human IgG1, V domains shown) VH: QVQLVQSGAEVKKPGASVKVSCKASGYTFTNYYMNWVRQAPGQGLEWMGRIYPASGNTYYAQKFQGRVTMTRDTSTSTVYMELSSLRSEDTAVYYCARGVWYFDEWGQGTLVTVSS VL: DIQMTQSPSSLSASVGDRVTITCRASQGIRTNLAWFQQKPGKAPKSLIYAASSLQSGVPSRFSGSGSGTDFTLTISSLQPEDFATYYCQQYANYPRTFGGGTKVEIK	binds		
MH5.33 (antibody, human IgG1, V domains shown) VH: QVQLVQSGAEVKKPGASVKVSCKASGYTFTNYYMNWVRQAPGQGLEWMGRIYPASGNTYYAQKFQGRVTMTRDTSTSTVYMELSSLRSEDTAVYYCARGVWYYDYWGQGTLVTVSS VL: DIQMTQSPSSLSASVGDRVTITCRASQGIRTNLAWFQQKPGKAPKSLIYAASSLQSGVPSRFSGSGSGTDFTLTISSLQPEDFATYYCQQYANYPRTFGGGTKVEIK		binds	
MH1 IgG1-3M (antibody, V domains shown) VH: QVQLVQSGAEVKKPGASVKVSCKASGYTFTDYYMNWVRQAPGQGLEWMGRIYPGSGNTYYAQKFQGRVTMTRDTSTSTVYMELSSLRSEDTAVYYCARGVYYYDYWGQGTLVTVSS VL: DIQMTQSPSSLSASVGDRVTITCRASQGIRTNLAWFQQKPGKAPKSLIYAASSLQSGVPSRFSGSGSGTDFTLTISSLQPEDFATYYCQQYNSYPRTFGGGTKVEIK			binding [5]: binds
MH5 IgG1-3M (antibody, V domains shown) VH: QVQLVQSGAEVKKPGASVKVSCKASGYTFTDYYMNWVRQAPGQGLEWMGRIYPGSGNTYYAQKFQGRVTMTRDTSTSTVYMELSSLRSEDTAVYYCARGVYYYDYWGQGTLVTVSS VL: DIQMTQSPSSLSASVGDRVTITCRASQGIRTNLAWFQQKPGKAPKSLIYSASSLQSGVPSRFSGSGSGTDFTLTISSLQPEDFATYYCQQYANYPRTFGGGTKVEIK			binding [5]: binds
